Here are results for 62 compounds from PubChem BioAssay AID493014 (National Center for Advancing Translational Sciences (NCATS), 2011).

A short description of the assay: qHTS Assay to Find Inhibitors of Chronic Active B-Cell Receptor Signaling. To be noted: ABC-DLBCL IkBa-CBG/CBR reporter, luminescence ratio (green luciferase fused to IkBa over red control in TMD8 lymphoma cells), 4 h. The essentials: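 Concentration-response series (up to 46 uM) were applied to TMD8 dual-reporter cells for 4 h at 37C with doxycycline. Green/red ratio, after filter-overlap correction, defined %Activity; red signal alone was normalised to basal cells and zero luminescence.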

Setting [1] is: measured here: CBR red luminescence, cell number.
[2] abbreviates: measured here: IkBa-CBG green luminescence.

The other results are listed elsewhere or left out. Shown are side measurements of this screen, not its main read-out; they come without a call. Most of these compounds were active or inconclusive in the main read-out, so they are no random draw. Potencies come from curve fits of mixed quality, noted in brackets.

Usually AC50 stands for the concentration at which the activity in the assay is half-maximal. As to `CC(=O)c1cccc(NC(=O)Nc2ccc3c(c2)CCC3)c1`, the AC50 under setting [1] is 2.82 µM [rising, partial curve, poor fit].

In the case of `CCOc1cc(CNCCCN2CCOCC2)cc(Br)c1OCc1ccccc1Cl`, the half-maximal activity concentration (AC50) reads like this: under setting [1], 35.5 µM [falling, single point]; under setting [2], 3.98 µM [rising, full curve, poor fit].

As to `COc1cc(/C=N/Nc2nn3cnnc3c3ccccc23)ccc1O`, the AC50 under setting [1] is 4.47 µM [falling, full curve, poor fit].

Take `O=C1C=C(c2ccc(F)cc2OCc2ccccc2)C[C@@H](c2ccc(Cl)cc2)C1`: the half-maximal activity concentration (AC50) under setting [1] is 7.31 µM [rising, partial curve, poor fit].

Take `CCOC(=O)C1CCN(C(=O)COc2ccc(Cl)cc2Cl)CC1`: under setting [1], the AC50 is 35.5 µM [falling, single point].

Regarding `CC(=O)Oc1ccc(OC(C)=O)c(SCCCCCN2CCOCC2)c1`, the half-maximal activity concentration (AC50) under setting [1] is 35.5 µM [falling, single point].

`Cc1c(NC(=O)c2ncn[nH]2)cccc1-c1nc2ccccc2s1`: the AC50 under setting [1] is 8.2 µM [falling, partial curve].

As for `COc1cc2[nH]c(C(=O)NCc3ccccc3)cc2c(OC)c1OC`, under setting [1], the concentration at half-maximal activity (AC50) was 0.891 µM [rising, full curve, poor fit].

In the case of `CCC(N=c1cc(-c2ccc(OC)c(OC)c2)oc2ccc(C)cc12)C(=O)O` (stereo not drawn), under setting [1], the AC50 is 10.3 µM [rising, partial curve].

As for `Cc1nn(-c2ccccc2)c2c1C(c1ccccc1)C(C#N)=C(N)O2` (stereo not drawn), the AC50 under setting [1] is 5.17 µM [rising, single point].

Regarding `COC(=O)c1ccc(NC(=O)c2ccccc2)o1`, under setting [1], the AC50 was 11.2 µM [falling, single point].

For `COc1ccc(CN(C#N)c2nc(SC)nc(N(C)C)n2)cc1`, the AC50 under setting [1] was 5.01 µM [rising, single point].

`Cc1[nH]nc(-c2ccc(O)cc2O)c1-c1nc2ccccc2s1`: the AC50 under setting [1] is 2.82 µM [rising, full curve, poor fit].

As for `Cc1sc2ncnc(NCc3ccccc3)c2c1C`, the AC50 under setting [1] is 7.08 µM [rising, full curve, poor fit].

For the compound `Cc1cc(=O)[nH]c2ccc(S(=O)(=O)Nc3ccc(O)cc3)cc12`, the AC50 under setting [2] is 10 µM [falling, partial curve].

Turning to `O=C(CCNS(=O)(=O)c1ccccc1)N1CCOCC1`, under setting [1], the AC50 was 5.62 µM [falling, single point].

In the case of `CCOC(=O)CN(C(=O)c1snc(C(N)=O)c1N)C(C(=O)NC1CCCCC1)c1ccc(F)cc1` (stereo not drawn), the AC50 under setting [1] was 7.08 µM [rising, partial curve, poor fit].

With `COc1ccc(S(=O)(=O)Nc2ccc(-n3cccc3)cc2)cc1`, under setting [1], the AC50 is 35.5 µM [falling, single point].

In the case of `O=C(O)CCCCC1SCC2NC(=O)NC21` (stereo not drawn), the concentration at half-maximal activity (AC50) under setting [1] was 35.5 µM [rising, single point].

Turning to `CCN1C(=O)c2ccccc2S(=O)c2ccc(C(=O)N3CCCCCC3)cc21` (stereo not drawn), the AC50 under setting [1] is 20.6 µM [falling, partial curve, poor fit].

Consider `CC(=O)Nc1ccc(S(=O)(=O)NCCC(=O)OCc2csc(CC(=O)Nc3ccccc3C)n2)cc1`, for which the AC50 under setting [1] was 1.16 µM [rising, partial curve].

On to `CCn1cc(CNC(=O)C2C3CCC(C3)C2C(=O)O)cn1` (stereo not drawn), for which, under setting [1], the AC50 was 3.98 µM [falling, partial curve, poor fit].

Take `Cc1cc(NC(=O)C(C)SCC(=O)N(C)CC(=O)Nc2ccc(Br)cc2C)no1` (stereo not drawn): the AC50 under setting [1] is 35.5 µM [falling, single point].

On to `CCOC(=O)C1C(c2cc(OC)c(OC)c(OC)c2)NC(=S)NC1(O)C(F)(F)F` (stereo not drawn), for which the AC50 under setting [1] was 5.62 µM [rising, single point].

With `COc1cc(/C(C)=N\NC(N)=S)cc(OC)c1OC`, the concentration at half-maximal activity (AC50) runs as follows: under setting [1], 20.6 µM [rising, partial curve, poor fit]; under setting [2], 25.9 µM [falling, partial curve, poor fit].

Consider `COc1ccc(Nc2nc(C)cc(C)c2C(N)=O)cc1`, for which the concentration at half-maximal activity (AC50) under setting [1] was 16.4 µM [rising, partial curve, poor fit].

Turning to `CC(=O)N1CCN(c2ccc(NC(=O)c3ccc(Cl)c([N+](=O)[O-])c3)cc2)CC1`, under setting [1], the half-maximal activity concentration (AC50) was 3.16 µM [rising, partial curve, poor fit].

Regarding `Cc1cc(C(=O)Nc2ccc(Br)cn2)sc1C`, the AC50 under setting [1] was 16.4 µM [falling, single point].

For `Nc1cccc2cc(-c3ccccc3)oc12`, the AC50 under setting [1] was 13 µM [rising, partial curve, poor fit].

Consider `O=C(NNC(=S)NC(=O)c1cccs1)c1ccc(O)cc1`, for which the concentration at half-maximal activity (AC50) under setting [1] was 1.12 µM [falling, partial curve, poor fit].

Regarding `CN(C)S(=O)(=O)c1ccc(C(=O)NCc2nc3ccccc3s2)cc1`, under setting [1], the half-maximal activity concentration (AC50) was 17.8 µM [rising, partial curve, poor fit].

On to `O=C(Nc1ccccc1)c1ccc2c(c1)OCO2`, for which the AC50 under setting [1] is 10.3 µM [falling, partial curve].

For `COc1ccc(CNc2n[nH]c(NCc3ccc(OC)c(OC)c3)n2)cc1OC`, the AC50 under setting [1] is 23.1 µM [rising, single point].

Regarding `Cc1ccc2nc(N/C(=N/S(=O)(=O)c3ccc(F)cc3F)c3ccccc3)sc2c1`, the half-maximal activity concentration (AC50) under setting [1] was 5.01 µM [falling, partial curve, poor fit].

Take `COc1ccc(C(=O)N/N=C/c2c(CO)cnc(C)c2O)cc1`: the concentration at half-maximal activity (AC50) under setting [1] is 14.1 µM [falling, single point].

As to `O=C(c1ccc(-n2cccc2)cc1)N1CCN(Cc2ccccc2)CC1`, under setting [1], the AC50 is 28.2 µM [falling, partial curve, poor fit].

In the case of `CCCC(=O)OCCNc1cc(SCc2ccco2)c2nonc2c1[N+](=O)[O-]`, the AC50 under setting [2] is 32.6 µM [falling, partial curve, poor fit].

In the case of `O=C(CSc1nnc(-c2ccc(O)cc2)o1)Nc1cccc(O)c1`, the AC50 under setting [1] is 7.94 µM [falling, partial curve].

Turning to `CC1(S(=O)(=O)O)CC(=O)c2ccccc2C1=O` (stereo not drawn), the AC50 under setting [1] is 5.62 µM [falling, full curve] and the AC50 under setting [2] is 35.5 µM [rising, partial curve, poor fit].

With `Cc1ccc(/C=C/C(=O)Nc2cccc3ncccc23)o1`, the half-maximal activity concentration (AC50) under setting [1] is 7.31 µM [falling, partial curve, poor fit].

In the case of `O=[N+]([O-])c1cccc2ccc(/C=C/c3cccc(Br)c3)nc12`, under setting [1], the AC50 was 2.06 µM [rising, full curve, poor fit].

`O=C(c1c(O)c2ccccc2oc1=O)C1CCC1`: the half-maximal activity concentration (AC50) under setting [1] is 10 µM [falling, partial curve].

On to `Nc1nnnn1/N=C/c1ccco1`, for which the AC50 is 1.03 µM [falling, full curve, poor fit] under setting [1] and 2.91 µM [rising, full curve, poor fit] under setting [2].

In the case of `Cc1cc(C)cc(C(=O)/C=C2\NC(=O)CS2)c1`, the concentration at half-maximal activity (AC50) under setting [1] is 17.8 µM [falling, partial curve].

For the compound `CCNC(=S)Nc1nc2c(cc1C(=O)OCC)CCCC2`, the AC50 under setting [1] was 13 µM [rising, partial curve, poor fit].

As for `O=C(O)c1cccc(NC(=O)C2C3C=CC(C3)C2C(=O)O)c1` (stereo not drawn), the AC50 under setting [1] was 14.1 µM [rising, single point].

As to `COc1ccc(C(=O)Nc2cnc(NC(=O)c3cccs3)cc2C)cc1`, the concentration at half-maximal activity (AC50) under setting [1] is 3.98 µM [falling, partial curve, poor fit].

Take `COc1ccc(OC)c(-c2csc(NC(=O)CSCC(=O)Nc3cc(C)on3)n2)c1`: the AC50 under setting [1] was 16.4 µM [falling, single point].

For `Cn1cc(CNCc2cn(C)nc2-c2ccc(C3CCCCC3)cc2)cn1`, under setting [1], the half-maximal activity concentration (AC50) was 35.5 µM [falling, single point].

Consider `N/C(=N\OC(=O)c1ccc2c(c1)OCO2)c1cccnc1`, for which the AC50 under setting [1] was 20 µM [falling, single point].

Regarding `CC(C)CNC(=S)NNC(=O)c1ccc2c(c1)OCO2`, under setting [1], the concentration at half-maximal activity (AC50) was 14.6 µM [falling, single point].

Regarding `CCCCN(C(=O)c1ccc(S(=O)(=O)N2CCC(C)CC2)cc1)C1CCS(=O)(=O)C1` (stereo not drawn), under setting [1], the AC50 was 8.2 µM [falling, partial curve, poor fit].

As to `CNC(=S)N/N=C/c1c(C)nn(-c2ccccc2)c1Cl`, under setting [1], the AC50 is 0.326 µM [falling, full curve, poor fit].

With `Cc1nnc(NC(=O)c2ccc3c(c2)C(=O)N(CCC(C)C)C3=O)s1`, the AC50 under setting [1] is 6.51 µM [falling, single point].

As for `CCOC(=O)C(NC(=O)N(C)C)(Nc1sc(C)c(CC)c1C#N)C(F)(F)F` (stereo not drawn), the concentration at half-maximal activity (AC50) runs as follows: under setting [1], 25.9 µM [rising, single point]; under setting [2], 7.31 µM [falling, partial curve].

With `O=C(C1CCN(S(=O)(=O)c2cccc3nsnc23)CC1)N1CCCc2ccccc21`, the concentration at half-maximal activity (AC50) under setting [1] is 11.2 µM [falling, partial curve].

`C[C@]12CC[C@H]3[C@@H](CCC4=CC(=O)CC[C@@]43C)[C@@H]1CC[C@@H]2C(=O)CO`: under setting [1], the AC50 was 0.00411 µM [rising, full curve, poor fit].

On to `NCCNC(=O)Cc1ccc(NC(=O)Cc2ccc(Nc3ncnc4c3ncn4[C@@H]3O[C@H](CO)[C@@H](O)[C@H]3O)cc2)cc1`, for which the AC50 is 0.164 µM [rising, full curve, poor fit] under setting [1] and 1.16 µM [falling, full curve] under setting [2].

Consider `Cc1ccc(OCCNCc2ccccc2)c(C)c1`, for which the AC50 under setting [1] is 3.55 µM [rising, partial curve, poor fit].

`CC1CCCCC1N(C)C1CCN(C(=O)CNC(=O)/C=C/c2cccc(Cl)c2)CC1` (stereo not drawn): under setting [1], the AC50 is 6.31 µM [falling, single point].

Regarding `O=C(N/N=C/c1cn(-c2ccccc2)nc1-c1cc2ccccc2o1)c1ccncc1`, the AC50 under setting [1] is 0.146 µM [rising, full curve].

`O=C(O)c1cc(-c2ccc3c(c2)OCO3)nc2ccc(Br)cc12`: under setting [1], the AC50 is 10 µM [falling, partial curve].
